# Test results as given in the supplement of paper PMC6411743.
# Amino acid sequences for entries named in this document (tags omitted). A change or cut given only in a name is not applied to a line headed by its entry.
# UniProt Q06945: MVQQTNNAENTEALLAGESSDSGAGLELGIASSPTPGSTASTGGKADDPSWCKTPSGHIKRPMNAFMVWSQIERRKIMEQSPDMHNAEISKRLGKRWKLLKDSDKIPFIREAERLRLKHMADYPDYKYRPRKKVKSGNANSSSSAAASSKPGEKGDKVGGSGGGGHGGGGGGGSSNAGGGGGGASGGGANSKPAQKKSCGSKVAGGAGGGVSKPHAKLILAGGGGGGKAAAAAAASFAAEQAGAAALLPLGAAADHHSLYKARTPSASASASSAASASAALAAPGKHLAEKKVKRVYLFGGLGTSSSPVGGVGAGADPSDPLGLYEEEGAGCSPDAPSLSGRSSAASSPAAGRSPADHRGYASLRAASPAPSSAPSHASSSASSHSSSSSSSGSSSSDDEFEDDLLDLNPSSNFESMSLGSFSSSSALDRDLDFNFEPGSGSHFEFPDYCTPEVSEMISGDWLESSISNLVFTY
# UniProt Q13496: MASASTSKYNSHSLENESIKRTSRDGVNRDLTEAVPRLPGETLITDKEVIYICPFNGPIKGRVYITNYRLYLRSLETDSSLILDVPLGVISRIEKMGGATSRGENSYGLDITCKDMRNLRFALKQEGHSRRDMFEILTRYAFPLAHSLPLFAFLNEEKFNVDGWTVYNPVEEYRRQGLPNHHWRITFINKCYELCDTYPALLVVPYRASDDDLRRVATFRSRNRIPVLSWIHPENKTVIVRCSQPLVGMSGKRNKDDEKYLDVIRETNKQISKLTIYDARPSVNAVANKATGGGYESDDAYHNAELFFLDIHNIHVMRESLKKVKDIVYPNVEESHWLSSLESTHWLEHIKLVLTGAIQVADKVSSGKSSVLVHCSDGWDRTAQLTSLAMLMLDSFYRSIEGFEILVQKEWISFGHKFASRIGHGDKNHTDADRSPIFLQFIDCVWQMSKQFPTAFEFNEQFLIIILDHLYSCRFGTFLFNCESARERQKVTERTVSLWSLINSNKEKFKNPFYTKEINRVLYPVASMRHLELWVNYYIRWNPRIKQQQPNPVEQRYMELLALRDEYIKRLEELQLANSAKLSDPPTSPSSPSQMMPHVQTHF
# UniProt Q14139: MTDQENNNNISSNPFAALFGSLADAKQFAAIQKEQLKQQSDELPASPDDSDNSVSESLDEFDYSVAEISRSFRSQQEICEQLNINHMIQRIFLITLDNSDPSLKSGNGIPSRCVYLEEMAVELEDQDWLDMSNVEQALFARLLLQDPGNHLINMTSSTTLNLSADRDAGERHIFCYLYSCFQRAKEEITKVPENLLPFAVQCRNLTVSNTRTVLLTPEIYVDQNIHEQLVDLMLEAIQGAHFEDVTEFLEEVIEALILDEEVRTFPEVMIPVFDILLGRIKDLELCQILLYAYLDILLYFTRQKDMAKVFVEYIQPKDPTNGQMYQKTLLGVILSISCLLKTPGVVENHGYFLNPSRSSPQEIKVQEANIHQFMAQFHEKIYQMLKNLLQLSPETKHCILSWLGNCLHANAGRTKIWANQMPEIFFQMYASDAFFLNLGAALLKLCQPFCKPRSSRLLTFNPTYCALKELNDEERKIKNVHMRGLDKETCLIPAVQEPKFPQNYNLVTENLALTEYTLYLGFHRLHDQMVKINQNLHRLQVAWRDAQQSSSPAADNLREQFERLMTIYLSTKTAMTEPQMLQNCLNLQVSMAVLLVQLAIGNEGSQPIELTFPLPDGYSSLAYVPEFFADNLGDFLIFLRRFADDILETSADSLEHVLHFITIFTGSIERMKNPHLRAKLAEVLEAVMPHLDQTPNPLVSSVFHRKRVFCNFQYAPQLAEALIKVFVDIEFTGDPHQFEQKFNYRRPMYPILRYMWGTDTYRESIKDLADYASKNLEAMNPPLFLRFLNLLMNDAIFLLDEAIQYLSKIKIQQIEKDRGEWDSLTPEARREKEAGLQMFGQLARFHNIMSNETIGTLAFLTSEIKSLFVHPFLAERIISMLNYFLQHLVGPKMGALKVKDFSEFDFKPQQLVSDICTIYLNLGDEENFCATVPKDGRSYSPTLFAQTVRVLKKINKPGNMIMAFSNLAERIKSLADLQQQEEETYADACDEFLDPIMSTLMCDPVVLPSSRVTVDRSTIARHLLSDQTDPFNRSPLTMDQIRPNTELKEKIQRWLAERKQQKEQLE
# UniProt Q13868, whole entry: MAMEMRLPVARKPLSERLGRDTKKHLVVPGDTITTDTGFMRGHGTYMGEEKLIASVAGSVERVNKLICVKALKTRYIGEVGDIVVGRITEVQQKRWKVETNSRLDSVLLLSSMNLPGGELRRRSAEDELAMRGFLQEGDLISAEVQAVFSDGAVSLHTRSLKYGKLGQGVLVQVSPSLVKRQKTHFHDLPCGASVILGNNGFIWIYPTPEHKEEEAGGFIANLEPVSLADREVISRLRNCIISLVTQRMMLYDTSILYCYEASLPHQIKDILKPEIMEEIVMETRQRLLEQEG
# UniProt Q01813: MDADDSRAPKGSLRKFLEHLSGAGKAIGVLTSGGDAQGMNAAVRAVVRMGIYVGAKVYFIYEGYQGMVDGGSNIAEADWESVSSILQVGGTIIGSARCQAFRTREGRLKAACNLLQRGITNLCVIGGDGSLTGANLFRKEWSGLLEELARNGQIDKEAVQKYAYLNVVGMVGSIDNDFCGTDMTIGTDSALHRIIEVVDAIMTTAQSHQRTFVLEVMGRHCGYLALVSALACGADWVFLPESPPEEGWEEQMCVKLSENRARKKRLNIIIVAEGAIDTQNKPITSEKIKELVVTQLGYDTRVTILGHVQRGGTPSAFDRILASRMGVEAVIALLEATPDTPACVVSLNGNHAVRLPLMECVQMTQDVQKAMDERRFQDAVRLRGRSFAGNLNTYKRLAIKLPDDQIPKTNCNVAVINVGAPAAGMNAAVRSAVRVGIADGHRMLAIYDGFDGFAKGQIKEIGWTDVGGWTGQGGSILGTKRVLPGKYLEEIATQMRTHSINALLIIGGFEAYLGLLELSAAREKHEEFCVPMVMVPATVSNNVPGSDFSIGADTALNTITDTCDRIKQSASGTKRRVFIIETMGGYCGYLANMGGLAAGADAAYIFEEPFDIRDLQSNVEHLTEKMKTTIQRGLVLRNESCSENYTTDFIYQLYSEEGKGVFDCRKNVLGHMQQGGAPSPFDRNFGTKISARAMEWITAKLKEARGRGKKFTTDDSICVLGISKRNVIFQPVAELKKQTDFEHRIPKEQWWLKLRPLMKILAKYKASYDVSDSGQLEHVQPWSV
# UniProt Q12986: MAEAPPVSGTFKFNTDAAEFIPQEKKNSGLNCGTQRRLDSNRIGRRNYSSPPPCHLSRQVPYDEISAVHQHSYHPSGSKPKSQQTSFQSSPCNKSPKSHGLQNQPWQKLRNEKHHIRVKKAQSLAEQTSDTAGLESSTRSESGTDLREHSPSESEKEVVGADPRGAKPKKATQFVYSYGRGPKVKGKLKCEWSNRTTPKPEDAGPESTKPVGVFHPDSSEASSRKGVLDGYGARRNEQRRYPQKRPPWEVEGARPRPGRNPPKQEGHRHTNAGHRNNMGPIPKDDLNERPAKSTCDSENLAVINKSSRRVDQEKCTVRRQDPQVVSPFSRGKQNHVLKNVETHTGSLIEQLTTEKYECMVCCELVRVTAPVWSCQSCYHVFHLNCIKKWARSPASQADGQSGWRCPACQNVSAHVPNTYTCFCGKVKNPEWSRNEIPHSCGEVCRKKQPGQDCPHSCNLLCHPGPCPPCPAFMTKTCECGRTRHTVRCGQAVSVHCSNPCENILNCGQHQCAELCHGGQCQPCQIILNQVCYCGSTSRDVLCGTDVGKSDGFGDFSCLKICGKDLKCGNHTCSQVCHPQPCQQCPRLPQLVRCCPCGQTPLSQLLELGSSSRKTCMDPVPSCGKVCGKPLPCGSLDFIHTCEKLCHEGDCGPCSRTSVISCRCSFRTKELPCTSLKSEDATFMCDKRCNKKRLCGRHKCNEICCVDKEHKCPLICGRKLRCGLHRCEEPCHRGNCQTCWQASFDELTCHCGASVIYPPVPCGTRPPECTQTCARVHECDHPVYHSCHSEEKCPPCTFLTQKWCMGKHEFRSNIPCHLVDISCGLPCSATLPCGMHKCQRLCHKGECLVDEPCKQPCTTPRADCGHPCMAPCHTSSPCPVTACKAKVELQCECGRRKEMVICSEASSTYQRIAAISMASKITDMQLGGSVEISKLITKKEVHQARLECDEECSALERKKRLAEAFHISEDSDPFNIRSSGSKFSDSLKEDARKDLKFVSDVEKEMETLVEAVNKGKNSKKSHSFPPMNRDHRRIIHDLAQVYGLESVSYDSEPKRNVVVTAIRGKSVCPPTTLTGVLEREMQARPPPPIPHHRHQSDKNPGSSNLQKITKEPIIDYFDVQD
# UniProt Q14289, whole entry, looked up: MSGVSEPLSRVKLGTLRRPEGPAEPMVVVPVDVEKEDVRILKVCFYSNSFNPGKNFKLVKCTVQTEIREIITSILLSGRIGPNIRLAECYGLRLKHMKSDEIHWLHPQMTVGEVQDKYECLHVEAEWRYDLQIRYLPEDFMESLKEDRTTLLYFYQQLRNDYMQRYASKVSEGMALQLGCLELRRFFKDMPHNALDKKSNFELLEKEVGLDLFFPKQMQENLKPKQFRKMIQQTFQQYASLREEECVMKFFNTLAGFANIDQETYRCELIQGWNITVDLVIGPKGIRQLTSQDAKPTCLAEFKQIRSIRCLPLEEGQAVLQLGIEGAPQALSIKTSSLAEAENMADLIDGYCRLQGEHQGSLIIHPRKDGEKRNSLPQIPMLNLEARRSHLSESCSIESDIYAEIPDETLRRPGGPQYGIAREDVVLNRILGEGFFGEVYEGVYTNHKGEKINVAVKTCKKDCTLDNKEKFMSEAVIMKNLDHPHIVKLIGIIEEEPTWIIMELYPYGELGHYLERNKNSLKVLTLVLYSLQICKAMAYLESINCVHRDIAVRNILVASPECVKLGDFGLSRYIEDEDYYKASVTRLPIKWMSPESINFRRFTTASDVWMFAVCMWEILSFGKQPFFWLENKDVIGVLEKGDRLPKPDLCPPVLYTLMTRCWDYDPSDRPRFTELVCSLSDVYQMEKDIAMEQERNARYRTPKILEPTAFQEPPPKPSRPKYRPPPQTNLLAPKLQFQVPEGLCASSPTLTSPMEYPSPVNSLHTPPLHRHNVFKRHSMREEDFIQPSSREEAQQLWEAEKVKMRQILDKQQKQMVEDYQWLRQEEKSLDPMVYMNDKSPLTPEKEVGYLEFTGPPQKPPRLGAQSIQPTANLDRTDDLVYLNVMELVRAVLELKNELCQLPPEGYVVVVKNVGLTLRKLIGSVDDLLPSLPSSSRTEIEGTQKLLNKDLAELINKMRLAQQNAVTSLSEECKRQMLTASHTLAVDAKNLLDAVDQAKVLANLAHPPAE
# UniProt Q08752, whole entry: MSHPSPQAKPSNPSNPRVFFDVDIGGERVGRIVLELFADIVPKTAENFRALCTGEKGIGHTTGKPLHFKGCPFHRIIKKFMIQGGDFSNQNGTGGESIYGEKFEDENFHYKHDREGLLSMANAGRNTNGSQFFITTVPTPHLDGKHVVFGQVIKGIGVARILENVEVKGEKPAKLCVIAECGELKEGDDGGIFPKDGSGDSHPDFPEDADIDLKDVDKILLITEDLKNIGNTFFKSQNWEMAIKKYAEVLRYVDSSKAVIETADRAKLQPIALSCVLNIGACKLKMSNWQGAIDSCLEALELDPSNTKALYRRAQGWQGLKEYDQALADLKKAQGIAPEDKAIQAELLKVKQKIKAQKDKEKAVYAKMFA
# UniProt Q05823: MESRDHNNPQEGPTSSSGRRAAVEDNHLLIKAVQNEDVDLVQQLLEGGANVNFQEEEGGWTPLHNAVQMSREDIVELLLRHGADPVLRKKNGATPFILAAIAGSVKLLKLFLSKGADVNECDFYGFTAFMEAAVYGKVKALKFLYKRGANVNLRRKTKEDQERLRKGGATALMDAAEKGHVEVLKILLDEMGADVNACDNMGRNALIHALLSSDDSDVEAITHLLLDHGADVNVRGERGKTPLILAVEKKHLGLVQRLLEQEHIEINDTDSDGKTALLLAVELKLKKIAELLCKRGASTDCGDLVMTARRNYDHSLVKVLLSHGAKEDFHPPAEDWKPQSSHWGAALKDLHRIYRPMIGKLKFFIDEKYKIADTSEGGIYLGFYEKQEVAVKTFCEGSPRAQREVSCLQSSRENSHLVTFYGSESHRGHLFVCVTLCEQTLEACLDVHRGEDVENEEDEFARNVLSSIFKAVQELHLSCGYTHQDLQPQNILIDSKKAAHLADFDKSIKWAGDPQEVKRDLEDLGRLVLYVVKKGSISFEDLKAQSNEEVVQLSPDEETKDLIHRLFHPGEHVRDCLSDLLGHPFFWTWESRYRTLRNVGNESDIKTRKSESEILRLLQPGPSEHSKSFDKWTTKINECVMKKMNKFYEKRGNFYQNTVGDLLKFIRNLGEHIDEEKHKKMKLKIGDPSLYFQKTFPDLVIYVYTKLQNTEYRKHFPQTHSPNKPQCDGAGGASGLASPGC
# ± gives the standard deviation of the averaged measurements. The list shows a part of the results.
# Compound: Nc1nc2c(ncn2[C@@H]2O[C@H](COP(=O)(O)OP(=O)(O)OP(=O)(O)O)[C@@H](O)[C@H]2O)c(=O)[nH]1 [guanosine triphosphate]
# Experiment: NP40-soluble protein abundance relative to vehicle (solubility fold change) (ratio); higher = more soluble protein in presence of GTP
# Details: concentration: 0.5mM
# In short: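 Data come from three independent experiments in which Dounce-homogenised Jurkat crude lysate was treated at eight concentrations from 0.1 to 10 mM. Treatment ran 10 min at room temperature and then 3 min at 37 °C, after which 0.8% NP40 and benzonase were added for 60 min at 4 °C before ultracentrifugation. The supernatant underwent TMT labelling and LC-MS/MS, and vsn-normalised intensities were expressed as fold change against the detergent-processed vehicle in each replicate.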
row,Target,NP40-soluble protein abundance
1,SOX4 (UniProt Q06945),0.882 ± 0.045
2,MORC3 (UniProt Q14149),1 ± 0.054
3,UniProt Q12872 and related entries,1.04 ± 0.027
4,UniProt Q03933-2,1.07 ± 0.012
5,CD47 (UniProt Q08722),0.837 ± 0.062
6,UniProt Q14161 and related entries,0.962 ± 0.041
7,MTM1 (UniProt Q13496),1.08 ± 0.088
8,UniProt Q14677 and related entries,0.967 ± 0.065
9,IK (UniProt Q13123),0.966 ± 0.087
10,UniProt Q14444 and related entries,0.994 ± 0.098
11,UniProt Q12800 and related entries,1.12 ± 0.065
12,UniProt Q14139 and related entries,1.02 ± 0.027
13,UniProt Q13868 and related entries,0.996 ± 0.063
14,UniProt Q13588 and related entries,1.05 ± 0.035
15,FHL3 (UniProt Q13643),1.12 ± 0.22
16,UniProt Q14197,1.14 ± 0.26
17,ITK (UniProt Q08881),1.07 ± 0.15
18,SAFB2 (UniProt Q14151),0.972 ± 0.1
19,UniProt Q01813 and related entries,1.08 ± 0.07

row,Target,NP40-soluble protein abundance
1,UniProt Q02447-3,1 ± 0.078
2,UniProt Q14669-2|Q14669-3,1.09 ± 0.045
3,THOC5 (UniProt Q13769),1.35 ± 0.093
4,DHX34 (UniProt Q14147),1.07 ± 0.12
5,NFX1 (UniProt Q12986),1.125 ± 0.0077
6,UniProt Q02252 and related entries,0.981 ± 0.023
7,AHNAK (UniProt Q09666),0.967 ± 0.047
8,UniProt Q14247 and related entries,1.03 ± 0.072
9,MAD2L1 (UniProt Q13257),1.04 ± 0.098
10,PMPCA (UniProt Q10713),1.02 ± 0.019
11,UniProt Q14289-2|Q14289,1.02 ± 0.013
12,UniProt Q13085 and related entries,1.09 ± 0.11
13,ECH1 (UniProt Q13011),0.997 ± 0.06
14,PPID (UniProt Q08752),0.909 ± 0.045
15,DNAJC3 (UniProt Q13217),0.9941 ± 0.0026
16,UniProt Q01196-11|Q01196-8|Q01196,1.03 ± 0.013
17,RNASEL (UniProt Q05823),1.1 ± 0.043
18,UniProt Q01968 and related entries,1.16 ± 0.049

# Same assay, conditions: concentration: 1mM
row,Target,NP40-soluble protein abundance
1,SOX4 (UniProt Q06945),0.958 ± 0.057
2,MORC3 (UniProt Q14149),0.988 ± 0.055
3,UniProt Q12872 and related entries,1.17 ± 0.014
4,UniProt Q03933-2,1.06 ± 0.029
5,CD47 (UniProt Q08722),0.876 ± 0.03
6,UniProt Q14161 and related entries,0.98 ± 0.056
7,MTM1 (UniProt Q13496),0.961 ± 0.043
8,UniProt Q14677 and related entries,0.949 ± 0.087
9,IK (UniProt Q13123),1.01 ± 0.05
10,UniProt Q14444 and related entries,1.06 ± 0.07
11,UniProt Q12800 and related entries,1.03 ± 0.046
12,UniProt Q14139 and related entries,0.98 ± 0.022
13,UniProt Q13868 and related entries,0.928 ± 0.032
14,UniProt Q13588 and related entries,0.937 ± 0.058
15,FHL3 (UniProt Q13643),1.09 ± 0.13
16,UniProt Q14197,1.42 ± 0.46
17,ITK (UniProt Q08881),0.931 ± 0.13
18,SAFB2 (UniProt Q14151),0.982 ± 0.066
19,UniProt Q01813 and related entries,1.05 ± 0.054

row,Target,NP40-soluble protein abundance
1,UniProt Q02447-3,1.01 ± 0.033
2,UniProt Q14669-2|Q14669-3,1.11 ± 0.013
3,THOC5 (UniProt Q13769),1.5 ± 0.18
4,DHX34 (UniProt Q14147),1.11 ± 0.056
5,NFX1 (UniProt Q12986),1.21 ± 0.021
6,UniProt Q02252 and related entries,0.964 ± 0.029
7,AHNAK (UniProt Q09666),1.01 ± 0.048
8,UniProt Q14247 and related entries,1.04 ± 0.087
9,MAD2L1 (UniProt Q13257),0.948 ± 0.046
10,PMPCA (UniProt Q10713),0.934 ± 0.018
11,UniProt Q14289-2|Q14289,0.967 ± 0.034
12,UniProt Q13085 and related entries,1.03 ± 0.088
13,ECH1 (UniProt Q13011),0.888 ± 0.053
14,PPID (UniProt Q08752),0.914 ± 0.048
15,DNAJC3 (UniProt Q13217),0.9137 ± 0.0073
16,UniProt Q01196-11|Q01196-8|Q01196,1.051 ± 0.0075
17,RNASEL (UniProt Q05823),1.12 ± 0.041
18,UniProt Q01968 and related entries,1.06 ± 0.087

# Same assay, conditions: concentration: 2mM
row,Target,NP40-soluble protein abundance
1,SOX4 (UniProt Q06945),0.938 ± 0.096
2,MORC3 (UniProt Q14149),0.99 ± 0.045
3,UniProt Q12872 and related entries,1.24 ± 0.024
4,UniProt Q03933-2,1 ± 0.047
5,CD47 (UniProt Q08722),0.816 ± 0.06
6,UniProt Q14161 and related entries,0.972 ± 0.066
7,MTM1 (UniProt Q13496),0.99 ± 0.076
8,UniProt Q14677 and related entries,0.942 ± 0.099
9,IK (UniProt Q13123),1 ± 0.079
10,UniProt Q14444 and related entries,1.01 ± 0.14
11,UniProt Q12800 and related entries,1.08 ± 0.059
12,UniProt Q14139 and related entries,0.975 ± 0.05
13,UniProt Q13868 and related entries,1.06 ± 0.12
14,UniProt Q13588 and related entries,0.968 ± 0.085
15,FHL3 (UniProt Q13643),1.05 ± 0.17
16,UniProt Q14197,1.5 ± 0.45
17,ITK (UniProt Q08881),0.955 ± 0.15
18,SAFB2 (UniProt Q14151),1.01 ± 0.096
19,UniProt Q01813 and related entries,1.04 ± 0.083

row,Target,NP40-soluble protein abundance
1,UniProt Q02447-3,0.984 ± 0.067
2,UniProt Q14669-2|Q14669-3,1.18 ± 0.058
3,THOC5 (UniProt Q13769),1.83 ± 0.36
4,DHX34 (UniProt Q14147),1.11 ± 0.11
5,NFX1 (UniProt Q12986),1.274 ± 0.0086
6,UniProt Q02252 and related entries,0.93 ± 0.026
7,AHNAK (UniProt Q09666),0.972 ± 0.078
8,UniProt Q14247 and related entries,1.02 ± 0.064
9,MAD2L1 (UniProt Q13257),0.946 ± 0.1
10,PMPCA (UniProt Q10713),0.933 ± 0.027
11,UniProt Q14289-2|Q14289,0.976 ± 0.059
12,UniProt Q13085 and related entries,1.07 ± 0.14
13,ECH1 (UniProt Q13011),0.927 ± 0.049
14,PPID (UniProt Q08752),0.864 ± 0.075
15,DNAJC3 (UniProt Q13217),0.916 ± 0.011
16,UniProt Q01196-11|Q01196-8|Q01196,1.07 ± 0.054
17,RNASEL (UniProt Q05823),1.07 ± 0.05
18,UniProt Q01968 and related entries,1.06 ± 0.067
